# Laboratory results as given in US6673840B1, “Use of lipoxygenase metabolite of arachidonic acid and its derivatives in capsaicin-channel agonist” (priority 1998, dated 2004).
# At least one compound was matched to its structure with a doubt left. No end group written: not given here.
# Columns and labels:
# [1] = tested on: cultured sensory nerve cells; assay: whole-cell currents in cultured sensory nerve cells in response to BK; assay type: cell-based; conditions: 1~5 μM of BK; of 164 cultured cells
# Description: When taking various experimental results previously obtained into account, it was inferred that BK has a possibility to open CAP channels through the arachidonic acid-lipoxygenase pathway. To confirm this inference, an examination was made regarding whether the currents generated in cultured sensory nerve sells in response to BK were diminished by CZP or other lipoxygenase inhibitors. If BK made CAP channel open via the arachidonic acid-lipoxygenase pathway, the current response to BK must be reduced by CZP. However, rarely did the cultured cells respond to BK.
# [2] = tested on: sensory nerve fibers (c-fibers) of the skin; assay: skin-nerve preparation, action potentials of cutaneous pain nerve c-fibers; design: species or system rats; conditions: administered to skin patch; BK 1 μM
# Protocol: To recognize whether the excitation of BK on nerve cells is accomplished via the arachidonic acid-lipoxygenase-CAP pathway, in vivo, a measurement was made on the action potentials in the sensory nerve fibers of the rats, as shown in FIGS. 13a and 13b. particularly, pain nerves which exist in the skin were isolated, together with a overlapping area of the skin, and the action potentials were measured from the nerve filaments using skin-nerve preparation (Reeh, 1998; Steen et al., 1992, 1995) as schematically illustrated in FIG. 13a. While unit action potentials measured at the sensory nerve fibers isolated from the skin, frequencies of the action potentials induced by the administration of BK were recorded. An increase in frequency of the action potentials means excitation of the sensory nerves.
# The transmission speed of nerve signals were measured and only c-fibers (non-myelinated sensory nerve fibers) were used in the BK response experiment. The reason why c-fibers are used only is that they consist mainly of pain nerve cells (Willis and Coggeshall, 1991; Yaksh, 1986).
# With reference to FIG. 13b, there are illustrated the action potential behaviors of the cutaneous pain nerve in response to agonist and antagonist samples. […]
sequence,measurement,setting,value
"RPPGFSPFR [BK, Bradykinin]",cultured cells showing inward whole-cell currents,[1],ten
same,action potentials of the nerve fibers (excitation),[2],made the nerve cells excited
